Tests used:
[1] = Coloration of milk, CIEL*a*b* colorimetric analysis; details: skim milk; for ΔE*: versus 0 PPM
[2] = Coloration of skyr, CIEL*a*b* colorimetric analysis; details: 46 PPM
[3] = Coloration of epoxy, CIEL*a*b* colorimetric analysis; details: for ΔE*: versus 0 PPM
[4] = Coloration of homemade gummis, CIEL*a*b* colorimetric analysis; details: gummi, 180 PPM

Structure (SMILES): C/C=C\C1=CC2=CC3=C(C(=O)C(C)CC)C(=O)OC3(C)C(=O)C2=CN1C(CC(C)C)C(=O)O (stereo not drawn) [cis-cavernamine-L]
- L*a*b* values: L ([1]; 28 PPM): L: 78.36
- L*a*b* values: a ([1]; 28 PPM): a: 6.07
- L*a*b* values: b ([1]; 28 PPM): b: 2.01
- ΔE* ([1]; 28 PPM): 12.07
- L*a*b* values: L ([1]; 140 PPM): L: 53.89
- L*a*b* values: a ([1]; 140 PPM): a: 15.22
- L*a*b* values: b ([1]; 140 PPM): b: 5.4
- ΔE* ([1]; 140 PPM): 37.37
- L*a*b* values: L ([1]; 280 PPM): L: 52.04
- L*a*b* values: a ([1]; 280 PPM): a: 18.10
- L*a*b* values: b ([1]; 280 PPM): b: 7.34
- ΔE* ([1]; 280 PPM): 40.74
- L*a*b* values: L [2]: L: 86.89
- L*a*b* values: a [2]: a: 6.40
- L*a*b* values: b [2]: b: 1.44
- ΔE* ([2]; versus 0 PPM): 12.48
- L*a*b* values: L ([3]; 30 PPM): L: 70.13
- L*a*b* values: a ([3]; 30 PPM): a: 4.81
- L*a*b* values: b ([3]; 30 PPM): b: 14.09
- ΔE* ([3]; 30 PPM): 17.64
- L*a*b* values: L ([3]; 600 PPM): L: 43.20
- L*a*b* values: a ([3]; 600 PPM): a: 15.33
- L*a*b* values: b ([3]; 600 PPM): b: 9.32
- ΔE* ([3]; 600 PPM): 40.99
- L*a*b* values: L [4]: L: 31.74
- L*a*b* values: a [4]: a: 21.89
- L*a*b* values: b [4]: b: 7.29
- ΔE* ([4]; versus 0 PPM): 22.96
